PubChem BioAssay AID1159578, Peter MacCallum Cancer Centre – 2015

- Test: 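siRNA pools altering how lymphatic endothelial cells close a scratch wound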 (primary screen)
- System: human lymphatic endothelial cells
- Reagents: siRNA pool against human genes, 40 nM
- Duration: 48 h after transfection
- Detection: 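Cells stained with dye and imaged after a scratch; covered wound area and nuclei counted, duplicates averaged, migration set against mock wells and turned into a robust z-score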
- Direction: migration robust z-score: higher = faster migration into the scratch; nuclei per well: higher = more cells in the well
- Rule for the call: 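Pools averaging fewer than 3300 nuclei are never called; remaining pools count as changed when migration robust z lies outside -2 to 2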
- Meaning of the calls: active = migration changed; inactive = no migration change, or too few cells
The deposit covers about 18,000 reagents; below is a random part of them. In the full data, about 1,030 (5.7%) are marked active. 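Inactive calls also include pools with fewer than 3300 nuclei, whose migration was not assessed.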 Raw values vary from plate to plate and are shown uncorrected. Not all columns of the deposit are shown. Reagent sequences are not shown.

GDPD4 (GeneID 220032) | migration robust z-score: -1.93; migration class with cell-count check: migration z between -2 and 2; enough cells; nuclei per well, duplicate mean: 3425; outcome: inactive
C1QTNF6 (GeneID 114904) | migration robust z-score: -0.62; migration class with cell-count check: migration z between -2 and 2; enough cells; nuclei per well, duplicate mean: 5454; outcome: inactive
NR1I2 (GeneID 8856) | migration robust z-score: -1.22; migration class with cell-count check: migration z between -2 and 2; enough cells; nuclei per well, duplicate mean: 4298; outcome: inactive
EPHB6 (GeneID 2051) | migration robust z-score: -0.39; migration class with cell-count check: migration z between -2 and 2; enough cells; nuclei per well, duplicate mean: 3880; outcome: inactive
FFAR4 (GeneID 338557) | migration robust z-score: 0.86; migration class with cell-count check: migration z between -2 and 2; enough cells; nuclei per well, duplicate mean: 6408; outcome: inactive
SEZ6 (GeneID 124925) | migration robust z-score: -2.46; migration class with cell-count check: under 3300 nuclei; migration not judged; nuclei per well, duplicate mean: 3230; outcome: inactive
TCEAL3 (GeneID 85012) | migration robust z-score: 1.34; migration class with cell-count check: migration z between -2 and 2; enough cells; nuclei per well, duplicate mean: 6773; outcome: inactive
CENPU (GeneID 79682) | migration robust z-score: 0.92; migration class with cell-count check: migration z between -2 and 2; enough cells; nuclei per well, duplicate mean: 5334; outcome: inactive
CSPP1 (GeneID 79848) | migration robust z-score: 0.32; migration class with cell-count check: migration z between -2 and 2; enough cells; nuclei per well, duplicate mean: 5476; outcome: inactive
CARMIL1 (GeneID 55604) | migration robust z-score: -1.14; migration class with cell-count check: migration z between -2 and 2; enough cells; nuclei per well, duplicate mean: 5304; outcome: inactive
GFRA2 (GeneID 2675) | migration robust z-score: 1.48; migration class with cell-count check: migration z between -2 and 2; enough cells; nuclei per well, duplicate mean: 4818; outcome: inactive
TMT1B (GeneID 196410) | migration robust z-score: -0.83; migration class with cell-count check: migration z between -2 and 2; enough cells; nuclei per well, duplicate mean: 5760; outcome: inactive
OPCML (GeneID 4978) | migration robust z-score: 0.78; migration class with cell-count check: migration z between -2 and 2; enough cells; nuclei per well, duplicate mean: 5787; outcome: inactive
ZBTB14 (GeneID 7541) | migration robust z-score: 0.48; migration class with cell-count check: migration z between -2 and 2; enough cells; nuclei per well, duplicate mean: 5714; outcome: inactive
GSX1 (GeneID 219409) | migration robust z-score: -0.9; migration class with cell-count check: migration z between -2 and 2; enough cells; nuclei per well, duplicate mean: 6036; outcome: inactive
FBXO2 (GeneID 26232) | migration robust z-score: -0.34; migration class with cell-count check: migration z between -2 and 2; enough cells; nuclei per well, duplicate mean: 5064; outcome: inactive
VAMP2 (GeneID 6844) | migration robust z-score: 1.45; migration class with cell-count check: migration z between -2 and 2; enough cells; nuclei per well, duplicate mean: 6992; outcome: inactive
RHBDD3 (GeneID 25807) | migration robust z-score: -0.9; migration class with cell-count check: migration z between -2 and 2; enough cells; nuclei per well, duplicate mean: 5021; outcome: inactive
MAP3K6 (GeneID 9064) | migration robust z-score: 0.26; migration class with cell-count check: migration z between -2 and 2; enough cells; nuclei per well, duplicate mean: 5736; outcome: inactive
DNAJA3 (GeneID 9093) | migration robust z-score: -1.21; migration class with cell-count check: migration z between -2 and 2; enough cells; nuclei per well, duplicate mean: 5291; outcome: inactive
GIGYF1 (GeneID 64599) | migration robust z-score: -0.15; migration class with cell-count check: migration z between -2 and 2; enough cells; nuclei per well, duplicate mean: 5816; outcome: inactive

Entries listed so far whose gene name starts with T or t (2):
TCEAL3 (GeneID 85012) | migration robust z-score: 1.34; migration class with cell-count check: migration z between -2 and 2; enough cells; nuclei per well, duplicate mean: 6773; outcome: inactive
TMT1B (GeneID 196410) | migration robust z-score: -0.83; migration class with cell-count check: migration z between -2 and 2; enough cells; nuclei per well, duplicate mean: 5760; outcome: inactive
